This assay addresses Lpd-EGFP fusion protein (human Lamellipodin) (human) (UniProt Q70E73). Kind of assay: co-IP.

By UniProt entry, the sequences of proteins in these tests, tags left out.
UniProt Q70E73: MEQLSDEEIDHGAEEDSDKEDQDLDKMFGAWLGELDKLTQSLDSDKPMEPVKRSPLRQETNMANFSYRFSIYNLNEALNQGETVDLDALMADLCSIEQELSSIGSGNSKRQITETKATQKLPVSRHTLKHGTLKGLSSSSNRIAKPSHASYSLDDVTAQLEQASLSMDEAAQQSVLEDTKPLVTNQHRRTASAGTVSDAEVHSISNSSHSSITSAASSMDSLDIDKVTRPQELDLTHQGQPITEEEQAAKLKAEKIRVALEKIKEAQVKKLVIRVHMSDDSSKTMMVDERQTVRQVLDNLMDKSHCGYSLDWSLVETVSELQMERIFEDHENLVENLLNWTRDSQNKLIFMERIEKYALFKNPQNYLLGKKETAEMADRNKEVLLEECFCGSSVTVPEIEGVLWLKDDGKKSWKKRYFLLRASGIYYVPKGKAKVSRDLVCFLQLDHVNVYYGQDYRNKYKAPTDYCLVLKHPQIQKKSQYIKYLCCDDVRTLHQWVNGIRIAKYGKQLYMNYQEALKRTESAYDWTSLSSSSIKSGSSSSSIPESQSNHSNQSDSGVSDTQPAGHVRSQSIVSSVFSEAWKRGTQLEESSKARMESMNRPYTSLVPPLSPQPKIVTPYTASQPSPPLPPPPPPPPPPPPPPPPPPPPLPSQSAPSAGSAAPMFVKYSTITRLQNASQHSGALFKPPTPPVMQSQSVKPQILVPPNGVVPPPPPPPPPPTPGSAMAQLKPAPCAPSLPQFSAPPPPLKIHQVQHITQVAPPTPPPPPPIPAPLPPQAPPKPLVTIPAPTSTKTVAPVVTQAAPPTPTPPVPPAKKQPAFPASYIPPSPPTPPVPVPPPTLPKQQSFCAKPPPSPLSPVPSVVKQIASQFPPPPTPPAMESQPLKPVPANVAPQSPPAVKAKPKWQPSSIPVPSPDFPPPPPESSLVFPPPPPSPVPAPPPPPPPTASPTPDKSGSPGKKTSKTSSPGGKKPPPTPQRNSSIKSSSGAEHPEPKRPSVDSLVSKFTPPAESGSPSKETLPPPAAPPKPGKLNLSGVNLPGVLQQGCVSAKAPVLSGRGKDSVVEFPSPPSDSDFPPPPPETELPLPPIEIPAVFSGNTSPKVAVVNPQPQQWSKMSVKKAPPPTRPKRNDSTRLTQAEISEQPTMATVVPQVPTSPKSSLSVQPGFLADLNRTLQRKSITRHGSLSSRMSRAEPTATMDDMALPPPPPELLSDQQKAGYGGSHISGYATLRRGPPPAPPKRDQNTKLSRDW

Results are given in words; binding and its absence hold for the method and conditions named. Binding seen in cells or lysates may run through a third protein. A result given as binding can be weak or reduced; the word gives no strength.

For “Myc-Mena (murine) (from UniProt Q03173-3)”, the binding result was “binds”.

The values above are taken from doi:10.1101/2022.12.23.521694.
